# Data published in patent US12102089B2, “Method for inactivating mold spores” (DSM IP ASSETS B.V., priority 2017, dated 2024).
# This continues a long series; more values of the same kind are listed elsewhere.
# Test system: Aspergillus niger ATCC 9029AA
# Experiment: Heat treatment of Aspergillus niger ATCC 9029AA spores in ice tea with natamycin, visual growth
# Assay type: cell-based
# Parameters: key: growth (+); no growth (−)
# Description: Commercially available ice tea (Lipton, peach flavor, non-carbonated, 1.5 L) was adjusted to high water hardness by adding 1 ml of a solution of 39 g CaCl2 and 27 g MgCl2 added to 934 g water. ⅓ of this ice tea preparation (the pH of which was 3.15) was left as-such, ⅓ of the preparation was enriched with 5 ppm natamycin and ⅓ of the preparation was enriched with 10 ppm natamycin. Samples of 5 ml were made from each preparation in 15 ml sterile plastic tubes. Of each preparation 8 samples were pre-heated to the desired pasteurization temperature using a water bath. Temperatures used were RT, 60, 65, 70, 75, 80, 85 and 90° C. When the desired temperature was reached, 100 μl of a 2500 spores/ml spore suspension of Aspergillus niger ATCC 9029AA was added to each tube. Subsequently, the samples were kept for 30 seconds at the temperature in question in the water bath. Next, the samples were cooled on ice to a temperature of 25° C. Samples were incubated at 25° C. and visually examined for growth (formation of mold flakes or turbidity) for two months. Additionally, samples were enumerated according to ISO protocol 21527-1.2008 on day 0 (before heat treatment) and day 1 (after heat treatment) to count immediate loss of viability. Enumeration was repeated after 1 month when samples remained free from visual mold growth; most counts were reduced to <10 after heat treatment, but were still able to grow. For the results, see Table 1.
smiles,measurement,setting,value
C[C@@H]1C/C=C/C=C/C=C/C=C/[C@H](O[C@@H]2O[C@H](C)[C@@H](O)[C@H](N)[C@@H]2O)C[C@@H]2O[C@](O)(C[C@@H](O)C[C@H]3O[C@@H]3/C=C/C(=O)O1)C[C@H](O)[C@H]2C(=O)O [natamycin],growth or no growth,"70°C, 10 ppm, day 1",−
same,growth or no growth,"70°C, 10 ppm, day 2",−
same,growth or no growth,"70°C, 10 ppm, day 3",−
same,growth or no growth,"70°C, 10 ppm, day 4",−
same,growth or no growth,"70°C, 10 ppm, day 5",−
same,growth or no growth,"70°C, 10 ppm, day 6",−
same,growth or no growth,"70°C, 10 ppm, day 7",−
same,growth or no growth,"70°C, 10 ppm, day 8",−
same,growth or no growth,"75°C, 5 ppm, day 1",−
same,growth or no growth,"75°C, 5 ppm, day 2",−
same,growth or no growth,"75°C, 5 ppm, day 3",−
same,growth or no growth,"75°C, 5 ppm, day 4",−
same,growth or no growth,"75°C, 5 ppm, day 5",−
same,growth or no growth,"75°C, 5 ppm, day 6",−
same,growth or no growth,"75°C, 5 ppm, day 7",−
same,growth or no growth,"75°C, 5 ppm, day 8",−
same,growth or no growth,"75°C, 5 ppm, day 9",−
same,growth or no growth,"75°C, 5 ppm, day 10",−
same,growth or no growth,"75°C, 5 ppm, day 11",−
same,growth or no growth,"75°C, 5 ppm, day 12",−
same,growth or no growth,"75°C, 5 ppm, day 13",−
same,growth or no growth,"75°C, 5 ppm, day 14",−
same,growth or no growth,"75°C, 5 ppm, day 15",−
same,growth or no growth,"75°C, 5 ppm, day 16",−
same,growth or no growth,"75°C, 5 ppm, day 17",−
same,growth or no growth,"75°C, 5 ppm, day 50",−
same,growth or no growth,"75°C, 10 ppm, day 1",−
same,growth or no growth,"75°C, 10 ppm, day 2",−
same,growth or no growth,"75°C, 10 ppm, day 3",−
same,growth or no growth,"75°C, 10 ppm, day 4",−
same,growth or no growth,"75°C, 10 ppm, day 5",−
same,growth or no growth,"75°C, 10 ppm, day 6",−
same,growth or no growth,"75°C, 10 ppm, day 7",−
same,growth or no growth,"75°C, 10 ppm, day 8",−
same,growth or no growth,"75°C, 10 ppm, day 9",−
same,growth or no growth,"75°C, 10 ppm, day 10",−
same,growth or no growth,"75°C, 10 ppm, day 11",−
same,growth or no growth,"75°C, 10 ppm, day 12",−
same,growth or no growth,"75°C, 10 ppm, day 13",−
same,growth or no growth,"75°C, 10 ppm, day 14",−
same,growth or no growth,"75°C, 10 ppm, day 15",−
same,growth or no growth,"75°C, 10 ppm, day 16",−
same,growth or no growth,"75°C, 10 ppm, day 17",−
same,growth or no growth,"75°C, 10 ppm, day 50",−
same,growth or no growth,"80°C, 5 ppm, day 1",−
same,growth or no growth,"80°C, 5 ppm, day 2",−
same,growth or no growth,"80°C, 5 ppm, day 3",−
same,growth or no growth,"80°C, 5 ppm, day 4",−
same,growth or no growth,"80°C, 5 ppm, day 5",−
same,growth or no growth,"80°C, 5 ppm, day 6",−
same,growth or no growth,"80°C, 5 ppm, day 7",−
same,growth or no growth,"80°C, 5 ppm, day 8",−
same,growth or no growth,"80°C, 5 ppm, day 9",−
same,growth or no growth,"80°C, 5 ppm, day 10",−
same,growth or no growth,"80°C, 5 ppm, day 11",−
same,growth or no growth,"80°C, 5 ppm, day 12",−
same,growth or no growth,"80°C, 5 ppm, day 13",−
same,growth or no growth,"80°C, 5 ppm, day 14",−
same,growth or no growth,"80°C, 5 ppm, day 15",−
same,growth or no growth,"80°C, 5 ppm, day 16",−
same,growth or no growth,"80°C, 5 ppm, day 17",−
same,growth or no growth,"80°C, 5 ppm, day 50",−
same,growth or no growth,"80°C, 10 ppm, day 1",−
same,growth or no growth,"80°C, 10 ppm, day 2",−
same,growth or no growth,"80°C, 10 ppm, day 3",−
same,growth or no growth,"80°C, 10 ppm, day 4",−
same,growth or no growth,"80°C, 10 ppm, day 5",−
same,growth or no growth,"80°C, 10 ppm, day 6",−
same,growth or no growth,"80°C, 10 ppm, day 7",−
same,growth or no growth,"80°C, 10 ppm, day 8",−
same,growth or no growth,"80°C, 10 ppm, day 9",−
same,growth or no growth,"80°C, 10 ppm, day 10",−
same,growth or no growth,"80°C, 10 ppm, day 11",−
same,growth or no growth,"80°C, 10 ppm, day 12",−
same,growth or no growth,"80°C, 10 ppm, day 13",−
same,growth or no growth,"80°C, 10 ppm, day 14",−
same,growth or no growth,"80°C, 10 ppm, day 15",−
same,growth or no growth,"80°C, 10 ppm, day 16",−
same,growth or no growth,"80°C, 10 ppm, day 17",−
same,growth or no growth,"80°C, 10 ppm, day 50",−
same,growth or no growth,"85°C, 5 ppm, day 1",−
same,growth or no growth,"85°C, 5 ppm, day 2",−
same,growth or no growth,"85°C, 5 ppm, day 3",−
same,growth or no growth,"85°C, 5 ppm, day 4",−
same,growth or no growth,"85°C, 5 ppm, day 5",−
same,growth or no growth,"85°C, 5 ppm, day 6",−
same,growth or no growth,"85°C, 5 ppm, day 7",−
same,growth or no growth,"85°C, 5 ppm, day 8",−
same,growth or no growth,"85°C, 5 ppm, day 9",−
same,growth or no growth,"85°C, 5 ppm, day 10",−
same,growth or no growth,"85°C, 5 ppm, day 11",−
same,growth or no growth,"85°C, 5 ppm, day 12",−
same,growth or no growth,"85°C, 5 ppm, day 13",−
same,growth or no growth,"85°C, 5 ppm, day 14",−
same,growth or no growth,"85°C, 5 ppm, day 15",−
same,growth or no growth,"85°C, 5 ppm, day 16",−
same,growth or no growth,"85°C, 5 ppm, day 17",−
same,growth or no growth,"85°C, 5 ppm, day 50",−
same,growth or no growth,"85°C, 10 ppm, day 1",−
same,growth or no growth,"85°C, 10 ppm, day 2",−
same,growth or no growth,"85°C, 10 ppm, day 3",−
same,growth or no growth,"85°C, 10 ppm, day 4",−
same,growth or no growth,"85°C, 10 ppm, day 5",−
same,growth or no growth,"85°C, 10 ppm, day 6",−
same,growth or no growth,"85°C, 10 ppm, day 7",−
same,growth or no growth,"85°C, 10 ppm, day 8",−
same,growth or no growth,"85°C, 10 ppm, day 9",−
same,growth or no growth,"85°C, 10 ppm, day 10",−
same,growth or no growth,"85°C, 10 ppm, day 11",−
same,growth or no growth,"85°C, 10 ppm, day 12",−
same,growth or no growth,"85°C, 10 ppm, day 13",−
same,growth or no growth,"85°C, 10 ppm, day 14",−
same,growth or no growth,"85°C, 10 ppm, day 15",−
same,growth or no growth,"85°C, 10 ppm, day 16",−
same,growth or no growth,"85°C, 10 ppm, day 17",−
same,growth or no growth,"85°C, 10 ppm, day 50",−
same,growth or no growth,"90°C, 5 ppm, day 1",−
same,growth or no growth,"90°C, 5 ppm, day 2",−
same,growth or no growth,"90°C, 5 ppm, day 3",−
same,growth or no growth,"90°C, 5 ppm, day 4",−
same,growth or no growth,"90°C, 5 ppm, day 5",−
same,growth or no growth,"90°C, 5 ppm, day 6",−
same,growth or no growth,"90°C, 5 ppm, day 7",+
same,growth or no growth,"90°C, 5 ppm, day 8",+
same,growth or no growth,"90°C, 5 ppm, day 9",+
same,growth or no growth,"90°C, 5 ppm, day 10",+
same,growth or no growth,"90°C, 5 ppm, day 11",+
same,growth or no growth,"90°C, 5 ppm, day 12",+
same,growth or no growth,"90°C, 5 ppm, day 13",+
same,growth or no growth,"90°C, 5 ppm, day 14",+
same,growth or no growth,"90°C, 5 ppm, day 15",+
same,growth or no growth,"90°C, 5 ppm, day 16",+
same,growth or no growth,"90°C, 5 ppm, day 17",+
same,growth or no growth,"90°C, 5 ppm, day 50",+
same,growth or no growth,"90°C, 10 ppm, day 1",−
same,growth or no growth,"90°C, 10 ppm, day 2",−
same,growth or no growth,"90°C, 10 ppm, day 3",−
same,growth or no growth,"90°C, 10 ppm, day 4",−
same,growth or no growth,"90°C, 10 ppm, day 5",−
same,growth or no growth,"90°C, 10 ppm, day 6",−
same,growth or no growth,"90°C, 10 ppm, day 7",−
same,growth or no growth,"90°C, 10 ppm, day 8",−
same,growth or no growth,"90°C, 10 ppm, day 9",−
same,growth or no growth,"90°C, 10 ppm, day 10",−
same,growth or no growth,"90°C, 10 ppm, day 11",−
same,growth or no growth,"90°C, 10 ppm, day 12",−
same,growth or no growth,"90°C, 10 ppm, day 13",−
same,growth or no growth,"90°C, 10 ppm, day 14",−
same,growth or no growth,"90°C, 10 ppm, day 15",−
same,growth or no growth,"90°C, 10 ppm, day 16",−
same,growth or no growth,"90°C, 10 ppm, day 17",−
same,growth or no growth,"90°C, 10 ppm, day 50",−
same,growth or no growth,"RT, 5 ppm, day 1",−
same,growth or no growth,"RT, 5 ppm, day 2",−
same,growth or no growth,"RT, 5 ppm, day 3",−
same,growth or no growth,"RT, 5 ppm, day 4",−
same,growth or no growth,"RT, 5 ppm, day 5",−
same,growth or no growth,"RT, 5 ppm, day 6",−
same,growth or no growth,"RT, 5 ppm, day 7",−
same,growth or no growth,"RT, 5 ppm, day 8",−
same,growth or no growth,"RT, 5 ppm, day 9",−
same,growth or no growth,"RT, 5 ppm, day 10",+
same,growth or no growth,"RT, 5 ppm, day 11",+
same,growth or no growth,"RT, 5 ppm, day 12",+
same,growth or no growth,"RT, 5 ppm, day 13",+
same,growth or no growth,"RT, 5 ppm, day 14",+
same,growth or no growth,"RT, 5 ppm, day 15",+
same,growth or no growth,"RT, 5 ppm, day 16",+
same,growth or no growth,"RT, 5 ppm, day 17",+
same,growth or no growth,"RT, 5 ppm, day 50",+
same,growth or no growth,"RT, 10 ppm, day 1",−
same,growth or no growth,"RT, 10 ppm, day 2",−
same,growth or no growth,"RT, 10 ppm, day 3",−
same,growth or no growth,"RT, 10 ppm, day 4",−
same,growth or no growth,"RT, 10 ppm, day 5",−
same,growth or no growth,"RT, 10 ppm, day 6",−
same,growth or no growth,"RT, 10 ppm, day 7",−
same,growth or no growth,"RT, 10 ppm, day 8",−
same,growth or no growth,"RT, 10 ppm, day 9",−
same,growth or no growth,"RT, 10 ppm, day 10",−
same,growth or no growth,"RT, 10 ppm, day 11",−
same,growth or no growth,"RT, 10 ppm, day 12",+
same,growth or no growth,"RT, 10 ppm, day 13",+
same,growth or no growth,"RT, 10 ppm, day 14",+
same,growth or no growth,"RT, 10 ppm, day 15",+
same,growth or no growth,"RT, 10 ppm, day 16",+
same,growth or no growth,"RT, 10 ppm, day 17",+
same,growth or no growth,"RT, 10 ppm, day 50",+
